PubChem BioAssay AID504774 | Drosophila RNAi Screening Center | 2011

Purpose: 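Knock-downs that shift viability of MMS-exposed cells relative to untreated ones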 (primary screen)
Cells: Drosophila Kc167 cells
Reagent: long dsRNA against Drosophila genes, about 0.25 µg dsRNA per well
Time to read-out: about 6 days: 3 days knock-down, then 3 days with or without MMS
Treatment: methyl methanesulphonate 0.004% (w/v) for 3 days after knock-down
Measured: 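ATP-dependent luminescence as a measure of live cells in MMS-exposed wells, quantile normalised within each plate, with replicate values also given as a mean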
Scale: mean viability with MMS and viability with MMS: higher = more surviving cells after MMS
The deposit covers about 23,000 reagents; this is an unselected part of those that have a named target and a result. 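Values are quantile-normalised luminescence on an arbitrary scale; higher means more cells surviving MMS.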 Not all columns of the deposit are shown.

CG4041 [DRSC18339] scored mean viability with MMS 3.47e6; viability with MMS, replicate 1 = 3.94e6.
Against L (Lobe) [DRSC06666], the entry reads mean viability with MMS 3.43e6; viability with MMS, replicate 1 = 3.84e6.
With knock-down of L (Lobe) [DRSC06668], the screen gave mean viability with MMS 3.53e6; viability with MMS, replicate 1 = 3.89e6.
With knock-down of CG8326 [DRSC20103] the results were mean viability with MMS 3.49e6; viability with MMS, replicate 1 = 4.03e6.
Syt12 (Synaptotagmin 12) [DRSC19359] gave mean viability with MMS 3.61e6; viability with MMS, replicate 1 = 4.09e6.
alt (aluminum tubes) [DRSC15315] gave mean viability with MMS 3.81e6; viability with MMS, replicate 1 = 4.28e6.
Silencing of Hsp23 (Heat shock protein 23) [DRSC11188] gave: mean viability with MMS 3.55e6; viability with MMS, replicate 1 = 4.01e6.
Depletion of Ccdc85 [DRSC00501] resulted in: mean viability with MMS 2.86e6; viability with MMS, replicate 1 = 3.25e6.
For Ccdc85 [DRSC23173], the values are mean viability with MMS 3.59e6; viability with MMS, replicate 1 = 4.07e6.
Depletion of Tengl1 (Testis EndoG-Like 1) [DRSC00481] resulted in: mean viability with MMS 3.55e6; viability with MMS, replicate 1 = 4.03e6.
ldbr (lariat debranching enzyme) [DRSC10933] showed mean viability with MMS 3.62e6; viability with MMS, replicate 1 = 4.03e6.
With knock-down of CG13001 [DRSC19520] the results were mean viability with MMS 3.57e6; viability with MMS, replicate 1 = 3.99e6.
Against CG13001 [DRSC22443], the values are mean viability with MMS 3.68e6; viability with MMS, replicate 1 = 4.18e6.
For smog [DRSC00334], the entry reads mean viability with MMS 3.62e6; viability with MMS, replicate 1 = 4.17e6.
smog [DRSC00335] showed mean viability with MMS 3.09e6; viability with MMS, replicate 1 = 3.46e6.
With knock-down of smog [DRSC23053], the record shows mean viability with MMS 2.99e6; viability with MMS, replicate 1 = 3.24e6.

In a second layout: 2 of the entries above.
{"predicted target":"CG13001","DRSC id":"DRSC22443","mean viability with MMS":3.68e6,"viability with MMS, replicate 1":4.18e6}
{"predicted target":"smog","DRSC id":"DRSC00334","mean viability with MMS":3.62e6,"viability with MMS, replicate 1":4.17e6}
